Measured values reported in the supplement of paper PMC10849652.
Some of the results follow.

Chains of the proteins cited; added tags and fusions are not shown. Lines headed by an entry give the natural chain unless they say otherwise; changes in a name come on top.
UniProt P07437, whole entry, looked up: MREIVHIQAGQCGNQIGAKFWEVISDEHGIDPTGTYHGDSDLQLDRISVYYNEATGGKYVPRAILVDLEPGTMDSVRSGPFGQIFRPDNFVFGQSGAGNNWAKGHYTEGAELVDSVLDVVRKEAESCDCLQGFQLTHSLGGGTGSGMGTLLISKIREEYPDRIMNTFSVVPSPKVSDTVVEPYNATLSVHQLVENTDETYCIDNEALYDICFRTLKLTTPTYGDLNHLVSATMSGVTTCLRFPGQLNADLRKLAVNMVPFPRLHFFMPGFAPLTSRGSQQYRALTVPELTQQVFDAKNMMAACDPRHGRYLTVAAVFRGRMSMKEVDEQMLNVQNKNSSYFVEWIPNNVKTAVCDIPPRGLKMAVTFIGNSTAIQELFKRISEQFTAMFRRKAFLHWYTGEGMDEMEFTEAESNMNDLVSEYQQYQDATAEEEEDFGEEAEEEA
UniProt O43396: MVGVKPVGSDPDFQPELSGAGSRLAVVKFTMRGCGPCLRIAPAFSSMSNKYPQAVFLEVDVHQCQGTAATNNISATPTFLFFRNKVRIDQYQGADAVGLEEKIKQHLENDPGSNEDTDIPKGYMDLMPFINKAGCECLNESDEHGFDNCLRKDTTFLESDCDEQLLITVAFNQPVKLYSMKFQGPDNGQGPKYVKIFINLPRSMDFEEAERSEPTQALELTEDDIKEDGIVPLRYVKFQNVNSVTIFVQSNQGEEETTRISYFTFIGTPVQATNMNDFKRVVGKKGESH
UniProt Q9BUF5, whole entry, looked up: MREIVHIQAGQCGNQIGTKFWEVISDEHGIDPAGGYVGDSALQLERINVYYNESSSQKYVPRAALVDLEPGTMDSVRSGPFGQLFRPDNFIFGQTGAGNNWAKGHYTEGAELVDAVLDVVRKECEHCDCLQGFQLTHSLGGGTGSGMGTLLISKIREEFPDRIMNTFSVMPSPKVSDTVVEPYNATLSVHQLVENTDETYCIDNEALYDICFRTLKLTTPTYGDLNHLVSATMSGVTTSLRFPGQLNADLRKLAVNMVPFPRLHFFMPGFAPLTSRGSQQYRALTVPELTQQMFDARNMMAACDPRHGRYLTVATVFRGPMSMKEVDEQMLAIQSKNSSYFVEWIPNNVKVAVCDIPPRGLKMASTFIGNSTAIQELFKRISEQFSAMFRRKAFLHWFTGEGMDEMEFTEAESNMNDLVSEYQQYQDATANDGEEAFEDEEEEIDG
UniProt P0CG48, whole entry, looked up: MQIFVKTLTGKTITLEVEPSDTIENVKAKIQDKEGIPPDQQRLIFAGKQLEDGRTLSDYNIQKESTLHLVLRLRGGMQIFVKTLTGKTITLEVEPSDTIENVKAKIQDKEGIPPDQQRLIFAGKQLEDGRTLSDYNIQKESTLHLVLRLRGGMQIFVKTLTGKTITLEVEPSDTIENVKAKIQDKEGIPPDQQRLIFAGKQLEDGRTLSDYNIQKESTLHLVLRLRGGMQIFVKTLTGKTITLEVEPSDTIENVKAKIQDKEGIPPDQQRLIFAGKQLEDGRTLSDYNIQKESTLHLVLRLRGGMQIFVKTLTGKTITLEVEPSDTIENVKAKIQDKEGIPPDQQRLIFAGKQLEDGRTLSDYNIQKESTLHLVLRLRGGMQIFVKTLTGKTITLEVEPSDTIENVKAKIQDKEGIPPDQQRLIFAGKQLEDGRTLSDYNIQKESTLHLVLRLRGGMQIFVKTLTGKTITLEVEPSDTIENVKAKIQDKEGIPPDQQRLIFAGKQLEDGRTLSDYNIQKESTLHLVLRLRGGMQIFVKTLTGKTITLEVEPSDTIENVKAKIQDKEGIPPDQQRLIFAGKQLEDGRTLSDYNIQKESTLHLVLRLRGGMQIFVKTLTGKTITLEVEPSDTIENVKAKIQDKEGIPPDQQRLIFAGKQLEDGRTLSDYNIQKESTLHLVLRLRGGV
UniProt Q96J42: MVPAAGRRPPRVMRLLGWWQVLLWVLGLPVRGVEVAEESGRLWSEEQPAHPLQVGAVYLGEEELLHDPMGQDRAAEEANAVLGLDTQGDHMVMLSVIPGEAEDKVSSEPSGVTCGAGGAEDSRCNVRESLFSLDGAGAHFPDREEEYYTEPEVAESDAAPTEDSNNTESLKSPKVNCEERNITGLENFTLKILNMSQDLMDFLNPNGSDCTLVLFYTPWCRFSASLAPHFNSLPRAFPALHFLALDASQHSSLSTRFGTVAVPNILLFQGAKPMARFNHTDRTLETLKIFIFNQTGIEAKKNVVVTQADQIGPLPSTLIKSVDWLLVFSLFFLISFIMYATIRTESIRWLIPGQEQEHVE
UniProt Q99757: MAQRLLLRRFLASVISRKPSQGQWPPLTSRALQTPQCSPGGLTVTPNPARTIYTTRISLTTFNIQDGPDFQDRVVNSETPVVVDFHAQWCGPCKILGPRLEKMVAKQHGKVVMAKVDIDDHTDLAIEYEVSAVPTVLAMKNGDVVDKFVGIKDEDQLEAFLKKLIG
UniProt Q96RT7, whole entry, looked up: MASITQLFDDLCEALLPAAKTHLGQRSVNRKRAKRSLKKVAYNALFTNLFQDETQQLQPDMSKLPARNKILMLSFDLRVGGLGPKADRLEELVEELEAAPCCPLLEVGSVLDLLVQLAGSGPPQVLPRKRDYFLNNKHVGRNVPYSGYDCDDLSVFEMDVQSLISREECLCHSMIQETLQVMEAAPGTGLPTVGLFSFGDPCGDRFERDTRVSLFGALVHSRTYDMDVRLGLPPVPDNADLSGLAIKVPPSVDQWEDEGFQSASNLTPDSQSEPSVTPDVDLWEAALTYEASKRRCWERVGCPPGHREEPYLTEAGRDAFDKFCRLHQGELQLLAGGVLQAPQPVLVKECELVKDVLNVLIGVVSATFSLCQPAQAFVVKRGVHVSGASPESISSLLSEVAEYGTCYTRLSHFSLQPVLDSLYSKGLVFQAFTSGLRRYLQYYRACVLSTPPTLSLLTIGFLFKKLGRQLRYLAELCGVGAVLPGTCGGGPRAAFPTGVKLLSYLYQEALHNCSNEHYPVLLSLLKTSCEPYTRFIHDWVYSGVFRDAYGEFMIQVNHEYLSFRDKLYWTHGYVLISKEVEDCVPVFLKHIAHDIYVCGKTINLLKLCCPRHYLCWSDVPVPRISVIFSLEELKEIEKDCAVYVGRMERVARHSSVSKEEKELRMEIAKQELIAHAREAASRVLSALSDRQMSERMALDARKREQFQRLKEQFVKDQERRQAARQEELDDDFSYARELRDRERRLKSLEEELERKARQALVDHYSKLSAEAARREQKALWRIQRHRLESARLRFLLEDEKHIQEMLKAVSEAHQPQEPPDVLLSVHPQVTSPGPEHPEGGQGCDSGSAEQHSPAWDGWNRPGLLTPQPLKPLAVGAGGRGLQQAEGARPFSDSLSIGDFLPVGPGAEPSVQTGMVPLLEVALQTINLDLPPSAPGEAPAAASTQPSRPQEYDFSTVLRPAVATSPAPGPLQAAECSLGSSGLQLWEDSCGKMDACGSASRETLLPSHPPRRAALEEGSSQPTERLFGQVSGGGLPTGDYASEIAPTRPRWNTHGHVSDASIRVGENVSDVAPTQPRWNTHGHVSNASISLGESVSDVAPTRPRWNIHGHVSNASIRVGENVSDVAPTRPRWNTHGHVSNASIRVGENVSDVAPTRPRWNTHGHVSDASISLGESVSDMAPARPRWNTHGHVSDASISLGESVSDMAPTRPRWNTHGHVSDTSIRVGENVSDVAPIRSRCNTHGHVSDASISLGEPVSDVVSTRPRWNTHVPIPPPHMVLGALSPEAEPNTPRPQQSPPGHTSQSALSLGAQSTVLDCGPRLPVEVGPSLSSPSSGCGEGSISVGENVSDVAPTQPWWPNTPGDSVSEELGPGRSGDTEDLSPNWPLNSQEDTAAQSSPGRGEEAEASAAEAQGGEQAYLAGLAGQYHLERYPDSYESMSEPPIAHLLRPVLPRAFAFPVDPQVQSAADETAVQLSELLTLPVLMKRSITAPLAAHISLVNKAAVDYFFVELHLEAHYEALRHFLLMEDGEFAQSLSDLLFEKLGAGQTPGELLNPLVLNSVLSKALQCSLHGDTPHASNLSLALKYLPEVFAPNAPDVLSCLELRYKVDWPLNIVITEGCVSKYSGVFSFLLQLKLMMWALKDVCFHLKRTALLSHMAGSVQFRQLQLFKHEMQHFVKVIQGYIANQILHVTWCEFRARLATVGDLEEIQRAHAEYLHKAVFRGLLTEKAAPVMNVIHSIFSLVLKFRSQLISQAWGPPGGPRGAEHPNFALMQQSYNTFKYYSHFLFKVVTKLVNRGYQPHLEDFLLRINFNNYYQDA
UniProt Q9UBT2: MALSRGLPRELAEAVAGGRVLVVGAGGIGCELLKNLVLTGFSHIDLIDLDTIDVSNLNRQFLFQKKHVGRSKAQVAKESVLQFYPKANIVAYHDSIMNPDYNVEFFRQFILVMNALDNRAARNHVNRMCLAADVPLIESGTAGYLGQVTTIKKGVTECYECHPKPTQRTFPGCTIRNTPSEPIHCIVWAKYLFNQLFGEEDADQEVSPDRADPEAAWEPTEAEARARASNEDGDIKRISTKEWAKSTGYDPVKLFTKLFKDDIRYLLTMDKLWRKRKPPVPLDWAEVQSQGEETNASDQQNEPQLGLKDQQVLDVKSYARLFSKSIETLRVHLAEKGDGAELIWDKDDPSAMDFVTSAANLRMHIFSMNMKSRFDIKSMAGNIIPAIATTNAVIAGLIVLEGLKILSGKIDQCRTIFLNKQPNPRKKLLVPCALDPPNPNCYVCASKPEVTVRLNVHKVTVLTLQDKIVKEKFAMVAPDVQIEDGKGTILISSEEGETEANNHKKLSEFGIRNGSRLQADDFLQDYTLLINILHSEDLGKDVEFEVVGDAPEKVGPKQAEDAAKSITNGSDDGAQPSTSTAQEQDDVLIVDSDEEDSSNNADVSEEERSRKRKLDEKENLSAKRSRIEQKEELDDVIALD
UniProt Q14139: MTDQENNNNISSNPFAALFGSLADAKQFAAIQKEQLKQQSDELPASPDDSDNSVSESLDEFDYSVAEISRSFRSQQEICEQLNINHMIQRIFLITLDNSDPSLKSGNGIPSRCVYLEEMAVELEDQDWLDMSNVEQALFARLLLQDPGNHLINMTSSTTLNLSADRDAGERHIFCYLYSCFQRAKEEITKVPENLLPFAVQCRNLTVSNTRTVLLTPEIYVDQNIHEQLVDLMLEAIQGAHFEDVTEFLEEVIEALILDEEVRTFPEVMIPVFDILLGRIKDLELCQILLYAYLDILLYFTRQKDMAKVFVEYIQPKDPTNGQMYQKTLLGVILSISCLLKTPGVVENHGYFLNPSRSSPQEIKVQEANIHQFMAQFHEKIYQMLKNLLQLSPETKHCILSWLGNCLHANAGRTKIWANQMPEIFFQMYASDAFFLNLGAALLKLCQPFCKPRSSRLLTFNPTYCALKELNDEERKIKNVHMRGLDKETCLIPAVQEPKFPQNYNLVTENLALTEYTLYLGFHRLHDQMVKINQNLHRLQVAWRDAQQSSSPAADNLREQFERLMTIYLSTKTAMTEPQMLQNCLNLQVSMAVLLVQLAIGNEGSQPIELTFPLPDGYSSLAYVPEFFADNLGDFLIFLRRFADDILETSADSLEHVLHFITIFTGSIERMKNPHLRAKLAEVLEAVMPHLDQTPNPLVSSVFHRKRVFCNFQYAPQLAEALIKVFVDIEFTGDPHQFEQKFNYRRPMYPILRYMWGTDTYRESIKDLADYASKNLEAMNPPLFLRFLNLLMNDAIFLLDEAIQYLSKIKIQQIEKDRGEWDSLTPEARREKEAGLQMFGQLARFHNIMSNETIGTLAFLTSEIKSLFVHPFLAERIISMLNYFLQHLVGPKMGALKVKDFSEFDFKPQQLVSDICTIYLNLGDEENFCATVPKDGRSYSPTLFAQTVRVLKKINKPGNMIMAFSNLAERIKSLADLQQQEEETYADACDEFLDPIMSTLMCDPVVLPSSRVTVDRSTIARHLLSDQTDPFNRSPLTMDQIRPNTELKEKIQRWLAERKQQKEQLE
UniProt P26368, whole entry, looked up: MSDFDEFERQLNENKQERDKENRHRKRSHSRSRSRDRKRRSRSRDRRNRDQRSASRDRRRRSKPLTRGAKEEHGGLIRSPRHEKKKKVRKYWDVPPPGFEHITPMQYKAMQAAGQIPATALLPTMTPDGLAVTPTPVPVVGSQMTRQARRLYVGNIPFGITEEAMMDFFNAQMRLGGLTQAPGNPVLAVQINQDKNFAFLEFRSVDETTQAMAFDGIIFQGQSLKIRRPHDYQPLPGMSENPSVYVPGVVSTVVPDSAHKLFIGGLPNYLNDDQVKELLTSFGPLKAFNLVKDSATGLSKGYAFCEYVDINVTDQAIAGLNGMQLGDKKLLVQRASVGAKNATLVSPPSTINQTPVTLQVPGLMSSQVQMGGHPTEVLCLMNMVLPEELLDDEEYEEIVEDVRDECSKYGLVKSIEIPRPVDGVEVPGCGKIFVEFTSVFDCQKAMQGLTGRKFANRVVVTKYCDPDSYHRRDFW
UniProt P11441: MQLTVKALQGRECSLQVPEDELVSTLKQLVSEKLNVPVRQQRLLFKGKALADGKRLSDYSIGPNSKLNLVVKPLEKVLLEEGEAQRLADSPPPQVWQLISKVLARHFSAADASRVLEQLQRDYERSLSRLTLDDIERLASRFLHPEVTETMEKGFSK

Tests used:
Assay in all cases: log2 fold change, soluble protein after heating vs DMSO (PISA); higher = thermal stabilisation; K562 lysate, 10 uM; active = over 0.2 and 3.5 SD of the protein, either way, in both replicates (recomputed)
[1] = compound: C#Cc1cccc(Nc2ncnc3cc(OCCOC)c(OCCOC)cc23)c1 [erlotinib]
Method in brief: (§1)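 Soluble protein was defined as the supernatant remaining after 21,000xg for 90 min, following pooling of heated aliquots and adjustment to 0.5% NP-40 at 4°C. Before that, crude K562 extract at 1 mg/mL protein in PBS pH 7.4 with 1 mM MgCl2 was treated with 10 μM compound for 30 min and heated for 3 min across 48°C-58°C. Quantification used TMTpro 16plex LC-MS/MS with channel sums equalised, and values are log-two fold changes in thermal stability relative to solvent controls from duplicates.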

[2] = compound: C/C(=N\NC(=O)C1=CC(=CC=C1)S(=O)(=O)N2CCOCC2)/C3=C(C=CC(=C3)Cl)O
Method in brief: as §1

[3] = compound: C1=CC(=CC=C1C2=NC3=C(N2)C=C(C=C3)C(=O)N)OC4=CC=C(C=C4)Cl
Method in brief: as §1

[4] = compound: C1=CC2=C(C=CC(=C2)/C=C\3/C(=O)NC(=NCC4=CC=CS4)S3)N=C1
Method in brief: as §1

[5] = compound: C1=CC2=NC=CN=C2C=C1/C=C/3\C(=O)NC(=O)S3
Method in brief: as §1

[6] = compound: C1=CC=C(C=C1)C2=NC(=C(N2)C3=CC=NC=C3)C4=CC(=C(C=C4)Cl)O
Method in brief: as §1

[7] = compound: C1=CC=C2C(=C1)C3=NNC4=CC=CC(=C43)C2=O
Method in brief: as §1

[8] = compound: C1CCN(C1)C(=O)NC2=CC=CC(=C2)NC3=NC=C(C(=N3)NCCC4=CN=CN4)Br
Method in brief: as §1

[9] = compound: C1CN(CCC1(CC2=CC=C(C=C2)Cl)N)C3=NC=NC4=C3C=CN4
Method in brief: as §1

[10] = compound: C1COCCN1CCN2C3=CC=CC=C3N=C2NC(=O)C4=CC(=CC=C4)[N+](=O)[O-] [IRAK-1-4 Inhibitor I]
Method in brief: as §1

Measured: log2 fold change

TUBB (UniProt P07437)
inactive: [1] 0.029 | [2] -0.017 | [3] 0.014 | [4] -0.006 | [5] 0.008 | [6] 0.008 | [7] -0.03 | [8] 0.006 | [9] 0.043 | [10] 0.027

TXNL1 (UniProt O43396)
inactive: [1] 0.013 | [2] 0.003 | [3] 0.018 | [4] 0 | [5] 0.001 | [6] -0.006 | [7] 0.007 | [8] 0.021 | [9] -0.005 | [10] 0

TUBB6 (UniProt Q9BUF5)
inactive: [1] 0.039 | [2] 0.051 | [3] -0.002 | [4] 0.017 | [5] 0 | [6] 0.005 | [7] 0.009 | [8] -0.013 | [9] 0.057 | [10] -0.003

UBC (UniProt P0CG48)
inactive: [1] 0.028 | [2] -0.012 | [3] -0.003 | [4] -0.032 | [5] -0.012 | [6] -0.027 | [7] -0.018 | [8] 0.02 | [9] 0.02 | [10] -0.011

UBQLN2 (UniProt Q9UHD9)
inactive: [1] 0.017 | [2] -0.011 | [3] 0.052 | [4] 0.018 | [5] -0.03 | [6] -0.005 | [7] 0.01 | [8] -0.025 | [9] 0.058 | [10] -0.009

TUBGCP3 (UniProt Q96CW5)
inactive: [1] -0.035 | [2] 0.021 | [3] -0.054 | [4] 0.044 | [5] 0.02 | [6] -0.039 | [7] 0.012 | [8] -0.044 | [9] -0.019 | [10] -0.054

UAP1 (UniProt Q16222)
inactive: [1] -0.014 | [2] 0.03 | [3] 0.011 | [4] -0.017 | [5] 0 | [6] -0.001 | [7] -0.016 | [8] -0.008 | [9] -0.011 | [10] -0.006

TXNDC15 (UniProt Q96J42)
inactive: [1] 0.019 | [2] -0.163 | [3] 0.071 | [4] -0.003 | [5] -0.039 | [6] -0.01 | [7] -0.086 | [8] 0.038 | [9] 0.117 | [10] -0.045

TXN (UniProt P10599)
inactive: [1] -0.01 | [2] 0.024 | [3] 0.025 | [4] 0.025 | [5] 0.011 | [6] 0.023 | [7] 0.032 | [8] 0.012 | [9] -0.015 | [10] 0

UBE2Q2 (UniProt Q8WVN8)
inactive: [1] -0.144 | [2] -0.187 | [3] 0.056 | [4] 0.132 | [5] -0.109 | [6] 0.035 | [7] -0.127 | [8] -0.001 | [9] -0.119 | [10] 0.281

TUBB6 (UniProt K7ES63)
inactive: [1] -0.19 | [2] 0.058 | [3] -0.06 | [4] 0.047 | [5] -0.01 | [6] -0.154 | [7] -0.029 | [8] -0.19 | [9] -0.22 | [10] 0.048

UBXN4 (UniProt Q92575)
inactive: [1] -0.065 | [2] -0.007 | [3] 0.042 | [4] -0.037 | [5] -0.057 | [6] -0.02 | [7] 0.029 | [8] -0.015 | [9] -0.022 | [10] 0.007

UBL5 (UniProt Q9BZL1)
inactive: [1] 0 | [2] 0.002 | [3] -0.02 | [4] 0.011 | [5] -0.079 | [6] 0 | [7] 0.049 | [8] 0.029 | [9] 0.004 | [10] -0.062

TXNL4B (UniProt Q9NX01)
inactive: [1] -0.057 | [2] 0.081 | [3] 0.012 | [4] -0.117 | [5] -0.35 | [6] -0.019 | [7] 0.002 | [8] -0.102 | [9] -0.004 | [10] -0.023

TXN2 (UniProt Q99757)
inactive: [1] -0.009 | [2] 0.019 | [3] -0.022 | [4] 0.014 | [5] -0.116 | [6] 0.008 | [7] 0.025 | [8] -0.066 | [9] 0.028 | [10] -0.018

TUBA3C (UniProt P0DPH7)
inactive: [1] 0.03 | [2] -0.605 | [3] 0.039 | [4] -0.029 | [5] 0.023 | [6] -0.023 | [7] -0.01 | [8] -0.011 | [9] 0.036 | [10] 0.037

TUBB4A (UniProt M0QYM7)
inactive: [1] -0.017 | [2] -0.063 | [3] 0.071 | [4] -0.015 | [5] -0.322 | [6] 0.044 | [7] -0.097 | [8] -0.038 | [9] -0.027 | [10] 0.025

UBL7 (UniProt Q96S82)
inactive: [1] -0.011 | [2] 0.076 | [3] -0.066 | [4] 0.022 | [5] -0.032 | [6] 0.006 | [7] -0.016 | [8] 0.057 | [9] 0.144 | [10] -0.002

TUBGCP6 (UniProt Q96RT7)
inactive: [1] 0.012 | [2] -0.358 | [3] 0.008 | [4] 0.139 | [5] 0.022 | [6] -0.014 | [7] -0.097 | [8] -0.049 | [9] 0.022 | [10] 0.132

UBR4 (UniProt Q5T4S7)
inactive: [1] 0 | [2] 0.039 | [3] -0.016 | [4] 0.017 | [5] -0.006 | [6] 0.008 | [7] -0.01 | [8] -0.021 | [9] 0.002 | [10] -0.009

UBA2 (UniProt Q9UBT2)
inactive: [1] -0.008 | [2] 0.016 | [3] 0.002 | [4] 0.011 | [5] 0.004 | [6] 0.011 | [7] 0.024 | [8] 0.033 | [9] 0.041 | [10] -0.016

TXNDC5 (UniProt Q8NBS9)
inactive: [1] -0.016 | [2] -0.004 | [3] 0.022 | [4] -0.026 | [5] 0.018 | [6] -0.018 | [7] 0.02 | [8] 0.025 | [9] 0.021 | [10] 0.012

UBE3D (UniProt Q7Z6J8)
inactive: [1] 0.06 | [2] 0.039 | [3] 0.062 | [4] -0.021 | [5] 0.006 | [6] -0.002 | [7] 0.029 | [8] -0.041 | [9] 0.023 | [10] 0.072

TUBD1 (UniProt Q9UJT1)
inactive: [1] -0.019 | [2] 0.046 | [3] 0.148 | [4] 0.012 | [5] 0.117 | [6] -0.123 | [7] -0.017 | [8] -0.065 | [9] -0.013 | [10] 0.061

UBE4A isoform 2 (UniProt Q14139)
inactive: [1] 0.031 | [2] 0.091 | [3] 0.023 | [4] 0.013 | [5] -0.023 | [6] -0.021 | [7] -0.082 | [8] -0.028 | [9] 0.035 | [10] 0.004

UBE3A (UniProt Q05086)
inactive: [1] 0.024 | [2] -0.025 | [3] 0.008 | [4] -0.002 | [5] -0.016 | [6] -0.01 | [7] -0.006 | [8] -0.015 | [9] 0.013 | [10] 0.029

U2AF2 (UniProt P26368)
inactive: [1] 0.014 | [2] 0.065 | [3] -0.051 | [4] -0.005 | [5] -0.058 | [6] 0.025 | [7] 0.011 | [8] 0.016 | [9] 0.003 | [10] -0.011

UBE2N (UniProt P61088)
inactive: [1] 0.016 | [2] 0.036 | [3] 0.004 | [4] 0 | [5] 0.014 | [6] -0.009 | [7] 0.045 | [8] 0.009 | [9] 0.053 | [10] 0.018

UBL4A (UniProt P11441)
inactive: [1] -0.04 | [2] 0.014 | [3] -0.069 | [4] 0.005 | [5] 0.087 | [6] 0.021 | [7] 0.04 | [8] 0.024 | [9] -0.028 | [10] -0.042

UBE2O (UniProt Q9C0C9)
inactive: [1] 0.034 | [2] 0.021 | [3] 0.044 | [4] 0.003 | [5] -0.006 | [6] 0.025 | [7] -0.045 | [8] -0.016 | [9] 0.023 | [10] 0.02

Reprinted from the listing (five entries):
TUBD1 (UniProt Q9UJT1)
inactive: [1] -0.019 | [2] 0.046 | [3] 0.148 | [4] 0.012 | [5] 0.117 | [6] -0.123 | [7] -0.017 | [8] -0.065 | [9] -0.013 | [10] 0.061

UBE4A isoform 2 (UniProt Q14139)
inactive: [1] 0.031 | [2] 0.091 | [3] 0.023 | [4] 0.013 | [5] -0.023 | [6] -0.021 | [7] -0.082 | [8] -0.028 | [9] 0.035 | [10] 0.004

UBE3A (UniProt Q05086)
inactive: [1] 0.024 | [2] -0.025 | [3] 0.008 | [4] -0.002 | [5] -0.016 | [6] -0.01 | [7] -0.006 | [8] -0.015 | [9] 0.013 | [10] 0.029

U2AF2 (UniProt P26368)
inactive: [1] 0.014 | [2] 0.065 | [3] -0.051 | [4] -0.005 | [5] -0.058 | [6] 0.025 | [7] 0.011 | [8] 0.016 | [9] 0.003 | [10] -0.011

UBE2N (UniProt P61088)
inactive: [1] 0.016 | [2] 0.036 | [3] 0.004 | [4] 0 | [5] 0.014 | [6] -0.009 | [7] 0.045 | [8] 0.009 | [9] 0.053 | [10] 0.018
